The list shows a part of the results.
Tests used:
Assay in all cases: log2 fold change, soluble protein after heating vs DMSO (PISA); higher = thermal stabilisation; K562 lysate, 10 uM; active = over 0.2 and 3.5 SD of the protein, either way, in both replicates (recomputed)
vemurafenib = compound: CCCS(=O)(=O)Nc1ccc(F)c(C(=O)c2c[nH]c3ncc(-c4ccc(Cl)cc4)cc23)c1F [vemurafenib]
How it was run: (§1)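 K562 pellets were dounce-homogenised in PBS pH 7.4 with 1 mM MgCl2, and the crude extract at 1 mg/mL protein was treated with 10 μM compound for 30 min. Aliquots were heated for 3 min across 48°C-58°C, pooled, and brought to 0.5% NP-40 at 4°C; soluble protein was the supernatant after 21,000xg for 90 min. Soluble protein was quantified by TMTpro 16plex LC-MS/MS with channel sums equalised, and reported as log2 fold change in thermal stability against DMSO controls, with values from duplicates.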

The chains behind the UniProt entries cited, without tags or fusion partners. Where a name states a change or a piece, a line headed by the entry shows the natural chain unless it says otherwise.
UniProt O60673: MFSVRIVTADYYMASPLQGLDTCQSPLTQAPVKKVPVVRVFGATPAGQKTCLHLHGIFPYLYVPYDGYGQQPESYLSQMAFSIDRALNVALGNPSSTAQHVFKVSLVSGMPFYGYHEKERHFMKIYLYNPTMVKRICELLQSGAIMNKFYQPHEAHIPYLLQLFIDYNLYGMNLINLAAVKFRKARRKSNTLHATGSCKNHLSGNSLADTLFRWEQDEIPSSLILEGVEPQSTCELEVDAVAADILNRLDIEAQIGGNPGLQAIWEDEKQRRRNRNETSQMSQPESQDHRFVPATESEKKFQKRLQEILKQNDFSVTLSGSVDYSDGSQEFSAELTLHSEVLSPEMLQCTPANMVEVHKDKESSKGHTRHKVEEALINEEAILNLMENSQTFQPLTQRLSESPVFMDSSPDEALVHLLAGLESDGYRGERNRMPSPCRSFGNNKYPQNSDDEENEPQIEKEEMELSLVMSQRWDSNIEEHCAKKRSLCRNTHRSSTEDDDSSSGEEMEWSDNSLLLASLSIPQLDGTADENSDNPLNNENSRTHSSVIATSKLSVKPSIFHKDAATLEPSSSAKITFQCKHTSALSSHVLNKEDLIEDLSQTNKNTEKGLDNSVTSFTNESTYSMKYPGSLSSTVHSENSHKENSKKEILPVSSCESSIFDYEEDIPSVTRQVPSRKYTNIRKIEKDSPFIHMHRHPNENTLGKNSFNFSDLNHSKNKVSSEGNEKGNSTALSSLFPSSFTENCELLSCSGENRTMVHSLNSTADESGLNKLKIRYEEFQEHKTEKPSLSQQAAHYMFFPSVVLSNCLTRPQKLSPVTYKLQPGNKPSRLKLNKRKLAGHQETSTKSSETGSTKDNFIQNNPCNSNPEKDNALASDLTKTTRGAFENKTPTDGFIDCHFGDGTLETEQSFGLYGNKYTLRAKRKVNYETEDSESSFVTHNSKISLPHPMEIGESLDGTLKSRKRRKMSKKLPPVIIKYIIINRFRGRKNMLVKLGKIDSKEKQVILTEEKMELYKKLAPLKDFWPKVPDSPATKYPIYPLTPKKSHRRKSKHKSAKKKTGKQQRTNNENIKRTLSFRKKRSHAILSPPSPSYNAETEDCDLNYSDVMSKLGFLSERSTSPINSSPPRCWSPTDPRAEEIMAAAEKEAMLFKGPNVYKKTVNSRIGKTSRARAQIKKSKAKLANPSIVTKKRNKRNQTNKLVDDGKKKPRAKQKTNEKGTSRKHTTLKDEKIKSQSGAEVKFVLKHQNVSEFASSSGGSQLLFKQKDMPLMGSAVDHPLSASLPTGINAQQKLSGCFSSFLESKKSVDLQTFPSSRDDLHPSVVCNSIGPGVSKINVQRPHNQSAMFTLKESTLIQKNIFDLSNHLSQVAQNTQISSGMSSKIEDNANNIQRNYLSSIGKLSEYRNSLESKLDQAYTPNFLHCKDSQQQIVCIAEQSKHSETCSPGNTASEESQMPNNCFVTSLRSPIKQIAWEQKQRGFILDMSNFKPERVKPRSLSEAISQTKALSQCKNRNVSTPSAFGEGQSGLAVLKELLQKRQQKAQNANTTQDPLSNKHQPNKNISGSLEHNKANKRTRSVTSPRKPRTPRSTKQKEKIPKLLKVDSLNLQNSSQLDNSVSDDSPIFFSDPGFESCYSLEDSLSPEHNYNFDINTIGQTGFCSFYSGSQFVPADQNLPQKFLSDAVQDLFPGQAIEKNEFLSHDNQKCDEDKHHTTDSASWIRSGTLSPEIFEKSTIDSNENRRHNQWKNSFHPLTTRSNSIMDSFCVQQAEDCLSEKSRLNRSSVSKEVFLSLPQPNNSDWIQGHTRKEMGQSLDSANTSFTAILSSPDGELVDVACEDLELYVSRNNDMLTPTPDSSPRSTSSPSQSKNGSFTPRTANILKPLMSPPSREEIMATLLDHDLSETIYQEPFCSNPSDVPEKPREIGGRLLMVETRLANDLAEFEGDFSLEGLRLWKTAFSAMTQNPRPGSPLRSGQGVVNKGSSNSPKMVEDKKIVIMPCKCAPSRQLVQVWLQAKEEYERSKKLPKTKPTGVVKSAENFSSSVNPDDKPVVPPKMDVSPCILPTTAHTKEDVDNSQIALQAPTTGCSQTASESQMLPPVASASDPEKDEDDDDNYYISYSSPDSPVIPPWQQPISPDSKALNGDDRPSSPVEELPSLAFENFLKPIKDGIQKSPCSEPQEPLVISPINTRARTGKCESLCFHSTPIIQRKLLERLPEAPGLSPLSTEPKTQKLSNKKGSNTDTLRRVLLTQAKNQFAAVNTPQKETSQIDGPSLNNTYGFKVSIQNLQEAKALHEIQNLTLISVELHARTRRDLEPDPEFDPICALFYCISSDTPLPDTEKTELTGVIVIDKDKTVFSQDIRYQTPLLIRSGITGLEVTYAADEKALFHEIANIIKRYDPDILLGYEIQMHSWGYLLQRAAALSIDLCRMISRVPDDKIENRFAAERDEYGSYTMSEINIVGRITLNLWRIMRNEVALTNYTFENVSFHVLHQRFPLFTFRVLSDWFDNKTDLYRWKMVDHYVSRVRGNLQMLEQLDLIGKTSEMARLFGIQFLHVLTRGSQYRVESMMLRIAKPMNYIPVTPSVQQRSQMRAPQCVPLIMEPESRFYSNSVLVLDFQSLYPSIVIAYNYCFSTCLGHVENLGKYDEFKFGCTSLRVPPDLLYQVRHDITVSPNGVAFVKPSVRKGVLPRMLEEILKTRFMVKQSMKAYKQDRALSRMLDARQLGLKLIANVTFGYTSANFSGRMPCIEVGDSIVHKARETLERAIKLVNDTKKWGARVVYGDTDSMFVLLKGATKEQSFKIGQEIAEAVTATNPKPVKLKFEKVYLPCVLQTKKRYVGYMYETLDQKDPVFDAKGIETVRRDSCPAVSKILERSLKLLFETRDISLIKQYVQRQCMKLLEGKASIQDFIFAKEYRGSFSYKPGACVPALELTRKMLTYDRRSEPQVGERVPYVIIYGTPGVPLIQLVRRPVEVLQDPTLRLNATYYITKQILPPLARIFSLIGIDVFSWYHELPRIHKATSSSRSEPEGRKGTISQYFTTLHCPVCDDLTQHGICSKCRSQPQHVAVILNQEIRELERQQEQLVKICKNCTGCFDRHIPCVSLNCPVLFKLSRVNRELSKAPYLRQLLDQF
UniProt Q8NBN7: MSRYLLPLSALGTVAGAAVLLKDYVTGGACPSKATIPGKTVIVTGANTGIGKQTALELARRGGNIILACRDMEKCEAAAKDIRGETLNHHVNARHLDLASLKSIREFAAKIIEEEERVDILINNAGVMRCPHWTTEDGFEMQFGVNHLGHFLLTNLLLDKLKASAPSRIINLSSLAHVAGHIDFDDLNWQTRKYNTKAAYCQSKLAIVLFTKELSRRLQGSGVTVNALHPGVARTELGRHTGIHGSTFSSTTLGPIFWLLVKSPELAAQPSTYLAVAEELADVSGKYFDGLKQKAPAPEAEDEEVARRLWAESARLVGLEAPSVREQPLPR
UniProt Q9BWE0: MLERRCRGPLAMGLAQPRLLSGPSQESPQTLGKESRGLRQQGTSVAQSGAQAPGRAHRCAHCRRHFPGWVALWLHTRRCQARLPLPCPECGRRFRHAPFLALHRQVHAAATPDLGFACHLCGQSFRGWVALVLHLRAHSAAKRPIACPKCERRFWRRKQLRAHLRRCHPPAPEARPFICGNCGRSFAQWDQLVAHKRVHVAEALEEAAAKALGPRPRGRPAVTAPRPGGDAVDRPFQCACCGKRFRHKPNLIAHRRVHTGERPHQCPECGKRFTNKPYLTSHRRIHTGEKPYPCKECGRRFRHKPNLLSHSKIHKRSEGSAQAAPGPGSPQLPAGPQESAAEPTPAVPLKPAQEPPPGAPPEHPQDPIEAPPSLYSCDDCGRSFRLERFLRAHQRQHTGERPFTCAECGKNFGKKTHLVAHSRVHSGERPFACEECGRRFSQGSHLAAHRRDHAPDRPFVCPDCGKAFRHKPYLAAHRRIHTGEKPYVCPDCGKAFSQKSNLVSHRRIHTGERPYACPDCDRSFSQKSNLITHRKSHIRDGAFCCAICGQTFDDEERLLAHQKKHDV
UniProt P62877, whole entry, looked up: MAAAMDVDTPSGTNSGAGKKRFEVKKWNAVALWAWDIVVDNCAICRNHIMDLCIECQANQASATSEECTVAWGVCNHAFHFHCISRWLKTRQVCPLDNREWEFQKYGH
UniProt P78332: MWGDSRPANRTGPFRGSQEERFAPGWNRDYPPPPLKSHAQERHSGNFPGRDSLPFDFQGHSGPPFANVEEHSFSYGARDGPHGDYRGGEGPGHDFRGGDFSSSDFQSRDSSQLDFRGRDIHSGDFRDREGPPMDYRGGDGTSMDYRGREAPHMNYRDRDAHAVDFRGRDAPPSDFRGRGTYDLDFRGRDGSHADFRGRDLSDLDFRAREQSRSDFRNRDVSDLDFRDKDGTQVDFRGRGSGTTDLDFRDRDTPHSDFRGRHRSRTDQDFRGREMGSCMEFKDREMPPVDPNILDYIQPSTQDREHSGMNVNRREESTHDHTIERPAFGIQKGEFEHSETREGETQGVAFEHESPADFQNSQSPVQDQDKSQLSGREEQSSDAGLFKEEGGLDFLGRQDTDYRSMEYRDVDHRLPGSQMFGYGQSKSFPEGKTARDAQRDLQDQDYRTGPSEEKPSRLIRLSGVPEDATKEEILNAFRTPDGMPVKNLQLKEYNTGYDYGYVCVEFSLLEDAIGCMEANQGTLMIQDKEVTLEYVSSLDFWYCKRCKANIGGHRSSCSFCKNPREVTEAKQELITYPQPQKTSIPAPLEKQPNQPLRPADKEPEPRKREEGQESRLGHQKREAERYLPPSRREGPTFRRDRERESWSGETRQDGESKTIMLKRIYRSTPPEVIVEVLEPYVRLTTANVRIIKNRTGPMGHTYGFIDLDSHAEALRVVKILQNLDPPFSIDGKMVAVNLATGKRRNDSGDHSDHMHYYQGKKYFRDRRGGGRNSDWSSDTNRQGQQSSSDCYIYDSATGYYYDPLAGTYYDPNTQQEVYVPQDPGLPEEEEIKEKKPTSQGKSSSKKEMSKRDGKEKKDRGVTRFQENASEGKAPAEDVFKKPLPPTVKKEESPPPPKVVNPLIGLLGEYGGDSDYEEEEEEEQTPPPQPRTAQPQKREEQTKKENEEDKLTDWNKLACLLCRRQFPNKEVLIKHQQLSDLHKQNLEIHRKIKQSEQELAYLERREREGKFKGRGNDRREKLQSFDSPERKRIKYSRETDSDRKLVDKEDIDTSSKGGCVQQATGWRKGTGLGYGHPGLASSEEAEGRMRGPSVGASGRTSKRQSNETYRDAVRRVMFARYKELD
UniProt Q13127: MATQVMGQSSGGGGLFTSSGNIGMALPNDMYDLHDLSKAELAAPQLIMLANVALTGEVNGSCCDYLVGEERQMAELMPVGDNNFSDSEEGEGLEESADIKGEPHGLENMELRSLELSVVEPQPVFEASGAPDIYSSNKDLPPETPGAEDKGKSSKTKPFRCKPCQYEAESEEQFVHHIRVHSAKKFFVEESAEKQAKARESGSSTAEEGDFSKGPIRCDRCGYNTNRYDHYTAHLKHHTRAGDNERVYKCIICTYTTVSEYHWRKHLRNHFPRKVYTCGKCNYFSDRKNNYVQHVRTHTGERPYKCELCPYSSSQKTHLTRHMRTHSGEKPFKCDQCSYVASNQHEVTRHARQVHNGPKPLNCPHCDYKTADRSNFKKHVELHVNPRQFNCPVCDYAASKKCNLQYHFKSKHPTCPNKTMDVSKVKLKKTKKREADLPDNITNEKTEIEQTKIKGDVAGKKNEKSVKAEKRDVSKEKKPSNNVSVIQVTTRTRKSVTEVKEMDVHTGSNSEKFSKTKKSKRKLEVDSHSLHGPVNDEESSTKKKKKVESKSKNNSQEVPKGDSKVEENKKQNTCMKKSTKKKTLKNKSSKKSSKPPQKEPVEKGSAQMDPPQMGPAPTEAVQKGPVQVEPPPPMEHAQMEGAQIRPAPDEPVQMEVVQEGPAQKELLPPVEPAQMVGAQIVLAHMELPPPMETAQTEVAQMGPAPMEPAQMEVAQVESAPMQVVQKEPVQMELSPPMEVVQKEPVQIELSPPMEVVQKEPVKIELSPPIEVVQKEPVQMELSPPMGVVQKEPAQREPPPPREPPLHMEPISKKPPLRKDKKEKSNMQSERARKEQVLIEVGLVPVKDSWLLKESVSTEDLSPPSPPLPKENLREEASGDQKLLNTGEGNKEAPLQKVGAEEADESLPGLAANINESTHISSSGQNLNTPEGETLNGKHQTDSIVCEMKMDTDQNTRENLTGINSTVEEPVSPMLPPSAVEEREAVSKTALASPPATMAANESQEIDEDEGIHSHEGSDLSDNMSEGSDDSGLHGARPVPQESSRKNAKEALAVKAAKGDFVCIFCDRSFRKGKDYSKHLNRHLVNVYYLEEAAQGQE
UniProt Q86WH2: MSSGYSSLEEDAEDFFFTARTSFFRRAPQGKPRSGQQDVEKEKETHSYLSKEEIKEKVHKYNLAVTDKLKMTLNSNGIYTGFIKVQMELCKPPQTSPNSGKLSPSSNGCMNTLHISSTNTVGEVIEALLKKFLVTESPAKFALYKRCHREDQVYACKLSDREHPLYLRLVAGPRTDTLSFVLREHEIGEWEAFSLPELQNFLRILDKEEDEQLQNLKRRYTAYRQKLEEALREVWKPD

[1] = compound: CCCS(=O)(=O)Nc1ccc(F)c(C(=O)c2c[nH]c3ncc(Cl)cc23)c1F
How it was run: as §1

[2] = compound: CC[C@@H]1C(=O)N(C)c2cnc(Nc3ccc(C(=O)NC4CCN(C)CC4)cc3OC)nc2N1C1CCCC1
How it was run: as §1

volasertib = compound: CC[C@@H]1C(=O)N(C)c2cnc(Nc3ccc(C(=O)N[C@H]4CC[C@H](N5CCN(CC6CC6)CC5)CC4)cc3OC)nc2N1C(C)C [volasertib]
How it was run: as §1

[3] = compound: CCn1c(C(=O)N(C2CC2)C2CC2)cc2c3c(ncn3C)c(Nc3cc(C)n(C)n3)nc21
How it was run: as §1

[4] = compound: CCn1cc(-c2ccnc3[nH]c(-c4cccc(CN(C)C)c4)cc23)c(-c2ccc(NC(=O)N(C)C)cc2)n1
How it was run: as §1

[5] = compound: CN1CCC(CNc2ccc3ncc(-c4cccc(OC(F)(F)F)c4)n3n2)CC1
How it was run: as §1

saracatinib = compound: CN1CCN(CCOc2cc(OC3CCOCC3)c3c(Nc4c(Cl)ccc5c4OCO5)ncnc3c2)CC1 [saracatinib]
How it was run: as §1

sotrastaurin = compound: CN1CCN(c2nc(C3=C(c4c[nH]c5ccccc45)C(=O)NC3=O)c3ccccc3n2)CC1 [sotrastaurin]
How it was run: as §1

barasertib = compound: CCN(CCCOc1ccc2c(Nc3cc(CC(=O)Nc4cccc(F)c4)[nH]n3)ncnc2c1)CCOP(=O)(O)O [barasertib]
How it was run: as §1

Target	log2 fold change (vemurafenib)	log2 fold change [1]	log2 fold change [2]	log2 fold change (volasertib)	log2 fold change [3]	log2 fold change [4]	log2 fold change [5]	log2 fold change (saracatinib)	log2 fold change (sotrastaurin)	log2 fold change (barasertib)
RDH11 (UniProt Q8TC12)	inactive: 0.055	inactive: 0.088	inactive: -0.115	inactive: -0.13	inactive: 0.069	inactive: -0.213	inactive: 0.082	inactive: 0.021	inactive: 0.022	–
RBM26 isoform 3 (UniProt Q5T8P6)	inactive: -0.043	inactive: 0.094	inactive: 0.123	inactive: 0.047	inactive: -0.158	–	–	inactive: 0.097	inactive: 0.017	inactive: 0
RBM8A (UniProt Q9Y5S9)	inactive: -0.086	inactive: -0.045	inactive: -0.091	inactive: -0.016	inactive: 0.047	inactive: 0.35	inactive: -0.198	inactive: -0.043	inactive: 0.047	inactive: 0.027
REV3L (UniProt O60673)	inactive: 0.051	inactive: 0.111	inactive: 0.111	inactive: 0.013	inactive: -0.237	–	–	inactive: 0.044	inactive: -0.042	inactive: 0.065
RELCH (UniProt Q9P260)	inactive: 0.04	inactive: 0.053	–	inactive: 0.199	–	–	–	inactive: -0.022	inactive: 0.021	–
RBM10 isoform 5 (UniProt P98175)	inactive: -0.004	inactive: -0.003	inactive: 0.02	inactive: -0.017	inactive: 0.032	inactive: 0.015	inactive: -0.045	inactive: 0.016	inactive: -0.043	inactive: -0.023
REXO5 (UniProt Q96IC2)	inactive: -0.027	–	inactive: 0.003	–	inactive: -0.082	inactive: -0.049	inactive: 0.085	inactive: 0.026	–	inactive: 0
RC3H2 (UniProt Q9HBD1)	inactive: 0.236	inactive: -0.127	inactive: 0.344	inactive: 0.123	inactive: 0.081	inactive: -0.123	inactive: 0.008	inactive: 0.06	inactive: 0.112	–
RDH13 (UniProt Q8NBN7)	inactive: -0.017	inactive: 0.038	inactive: -0.085	inactive: -0.038	inactive: 0.054	inactive: -0.128	inactive: -0.172	inactive: 0.013	inactive: -0.046	inactive: 0.032
RECQL (UniProt P46063)	inactive: 0.001	inactive: 0.015	inactive: -0.016	inactive: -0.005	inactive: -0.013	inactive: -0.043	inactive: 0.002	inactive: 0.013	inactive: 0.006	inactive: -0.007
REPIN1 isoform 4 (UniProt Q9BWE0)	inactive: 0.016	inactive: 0.041	inactive: 0.023	inactive: -0.058	inactive: -0.054	inactive: -0.094	inactive: 0.016	inactive: 0	inactive: 0.038	inactive: -0.012
RELN (UniProt P78509)	inactive: 0.043	inactive: -0.098	inactive: 0.024	inactive: -0.019	inactive: 0.021	inactive: -0.024	inactive: 0.152	inactive: 0.035	inactive: 0.02	inactive: 0.004
RBX1 (UniProt P62877)	inactive: -0.112	inactive: 0.493	inactive: -0.025	inactive: 0.059	inactive: -0.054	–	–	inactive: -0.282	inactive: -0.024	inactive: -0.054
RBM47	inactive: 0.054	inactive: 0.021	–	inactive: -0.101	inactive: -0.199	inactive: -0.286	inactive: 0.11	inactive: 0.025	–	–
RETREG2 (UniProt Q8NC44)	inactive: 0.037	inactive: -0.036	inactive: -0.009	inactive: 0.09	inactive: -0.086	inactive: -0.261	inactive: 0.014	–	inactive: 0.112	inactive: 0.033
REPS1 (UniProt Q96D71)	inactive: -0.018	inactive: 0.033	inactive: 0.054	inactive: -0.03	inactive: -0.011	inactive: -0.086	inactive: 0.009	inactive: 0.008	inactive: 0.001	inactive: 0.019
RBM38 (UniProt Q9H0Z9)	inactive: 0.024	inactive: -0.015	inactive: 0.104	inactive: 0.012	inactive: 0.095	inactive: 0.023	inactive: 0	inactive: 0.122	inactive: -0.058	–

Target	log2 fold change (vemurafenib)	log2 fold change [1]	log2 fold change [2]	log2 fold change (volasertib)	log2 fold change [3]	log2 fold change [4]	log2 fold change [5]	log2 fold change (saracatinib)	log2 fold change (sotrastaurin)	log2 fold change (barasertib)
RBBP5 isoform 2 (UniProt Q15291)	inactive: -0.316	inactive: 0.181	inactive: 0.045	inactive: -0.065	inactive: 0.133	–	–	inactive: 0.022	inactive: 0.029	inactive: -0.019
RBMY1E (UniProt A6NEQ0)	inactive: -0.023	inactive: -0.142	inactive: 0.141	inactive: -0.092	–	inactive: -0.141	inactive: -0.216	inactive: 0.082	inactive: 0.044	inactive: 0.037
RBBP7 (UniProt Q16576)	inactive: 0.044	inactive: -0.021	inactive: -0.017	inactive: -0.004	inactive: -0.002	–	–	inactive: 0.021	inactive: 0.043	inactive: -0.072
RFC4 (UniProt P35249)	inactive: 0.047	inactive: 0.02	inactive: -0.012	inactive: -0.042	inactive: 0.003	inactive: -0.086	inactive: 0.028	inactive: 0.044	inactive: 0.003	inactive: 0.02
RBM6 (UniProt P78332)	inactive: -0.013	inactive: -0.047	inactive: 0.015	inactive: -0.021	inactive: 0.047	inactive: -0.011	inactive: 0.032	inactive: 0.046	inactive: -0.009	inactive: 0.007
RBM42 (UniProt Q9BTD8)	inactive: -0.029	inactive: 0.027	inactive: 0.076	inactive: -0.014	inactive: -0.006	inactive: 0.004	inactive: -0.002	inactive: 0.039	inactive: -0.009	inactive: -0.037
REST (UniProt Q13127)	inactive: 0.135	inactive: -0.013	–	inactive: 0.006	inactive: 0.009	–	–	inactive: -0.052	inactive: -0.044	–
RBP5 (UniProt P82980)	inactive: -0.034	inactive: 0.054	inactive: 0.214	inactive: 0.094	inactive: 0.108	inactive: -0.331	inactive: 0.153	inactive: -0.064	inactive: 0.156	–
RFX7 (UniProt Q2KHR2)	inactive: 0.107	inactive: -0.079	inactive: 0.011	inactive: -0.067	inactive: -0.046	inactive: 0.174	inactive: 0.007	inactive: -0.001	inactive: -0.027	inactive: 0.092
RCN1 (UniProt Q15293)	inactive: 0.028	inactive: 0	inactive: 0.021	inactive: 0.021	inactive: -0.012	inactive: -0.013	inactive: -0.015	inactive: 0.044	inactive: 0.038	inactive: -0.002
RFX1 (UniProt P22670)	inactive: -0.004	inactive: 0.028	inactive: 0.017	inactive: 0	inactive: -0.011	inactive: 0.074	inactive: 0.037	inactive: 0.019	inactive: -0.014	inactive: 0.047
RASA1 (UniProt P20936)	inactive: -0.002	inactive: 0.026	inactive: 0.054	inactive: -0.016	inactive: 0.004	inactive: -0.037	inactive: 0.017	inactive: -0.008	inactive: -0.025	inactive: 0.059
RBM7 (UniProt Q9Y580)	inactive: 0.066	inactive: 0.035	inactive: 0.008	inactive: -0.03	inactive: 0.018	inactive: 0.016	inactive: 0.011	inactive: 0.026	inactive: 0.046	inactive: 0.068
REXO4 (UniProt Q9GZR2)	inactive: -0.018	inactive: 0.007	inactive: 0.013	inactive: -0.034	inactive: 0	active: 0.452	inactive: -0.184	inactive: -0.002	inactive: 0.013	inactive: 0.088
RELA (UniProt Q04206)	inactive: 0.011	inactive: 0.048	inactive: -0.009	inactive: -0.057	inactive: 0.063	inactive: -0.011	inactive: -0.024	inactive: -0.007	inactive: -0.05	inactive: 0.018
RGPD5 (UniProt Q99666)	inactive: -0.098	inactive: 0.032	inactive: 0.074	inactive: 0.046	inactive: 0.042	inactive: 0.701	inactive: -0.024	inactive: 0.012	inactive: 0.009	inactive: 0.052
RASSF3 (UniProt Q86WH2)	–	inactive: -0.091	–	inactive: -0.121	–	inactive: -0.191	inactive: -0.129	–	inactive: -0.008	–

Single records, as listed above. Order of values: log2 fold change (vemurafenib)	log2 fold change [1]	log2 fold change [2]	log2 fold change (volasertib)	log2 fold change [3]	log2 fold change [4]	log2 fold change [5]	log2 fold change (saracatinib)	log2 fold change (sotrastaurin)	log2 fold change (barasertib)
RGPD5 (UniProt Q99666) as listed: inactive: -0.098	inactive: 0.032	inactive: 0.074	inactive: 0.046	inactive: 0.042	inactive: 0.701	inactive: -0.024	inactive: 0.012	inactive: 0.009	inactive: 0.052
RBBP5 isoform 2 (UniProt Q15291) as listed: inactive: -0.316	inactive: 0.181	inactive: 0.045	inactive: -0.065	inactive: 0.133	–	–	inactive: 0.022	inactive: 0.029	inactive: -0.019

Source: the supplement of paper PMC10849652
